Reference: the supplement of paper PMC6078165
Values are relative to the signal before dosing, not to a vehicle control; the signal also falls without drug.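 Labels refer to human fibroblasts, largely primary: uterine (C12385, HUF), lung (H6013), bone (Hs27A), adrenal (HADF), skin (WS1), plus mammary HMF and breast cancer-associated Hs343T. Cancer lines are basal-like or mesenchymal-like triple-negative breast cancer. The paper counts as hits responses shifting over 3x the replicate standard deviation. The tissue of the other fibroblasts is not given here.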

System: Hs578T
Test: relative JC-1 red fluorescence (viability) vs pre-drug, coculture with fibroblast (fraction); higher = more viable cancer cells
Description: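 JC-1 labelled TNBC cells cocultured 1:1 (1,500 cells each) with CellTrace Violet stained primary or stromal fibroblasts in 384-well plates in FluoroBrite medium, treated with one of 42 anticancer drugs at 0.1, 1, 10 or 100 uM. JC-1 red fluorescence (mitochondrial integrity in cancer cells only) was read by plate reader every 8 h for 72 h. Values are normalised to each well's pre-drug value. The stock of one drug was tenfold lower, so its dose labels may be too high.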

CO[C@H]1C[C@@H]2CC[C@@H](C)[C@@](O)(O2)C(=O)C(=O)N2CCCC[C@H]2C(=O)O[C@H]([C@H](C)C[C@@H]2CC[C@@H](O)[C@H](OC)C2)CC(=O)[C@H](C)/C=C(\C)[C@@H](O)[C@@H](OC)C(=O)[C@H](C)C[C@H](C)/C=C/C=C/C=C/1C [Rapamycin]
relative JC-1 red fluorescence
Conditions | 8 h | 16 h | 24 h | 32 h | 40 h | 48 h | 56 h | 64 h | 72 h
0.1 µM | 0.901 | 0.81 | 0.754 | 0.712 | 0.653 | 0.613 | 0.591 | 0.549 | 0.539
1 µM | 0.9436 | 0.887 | 0.833 | 0.785 | 0.707 | 0.659 | 0.631 | 0.591 | 0.577

relative JC-1 red fluorescence
Conditions | 8 h | 16 h | 24 h | 32 h | 40 h | 48 h | 56 h | 64 h | 72 h
0.1 µM, coculture fibroblast: C12385 | 0.788 | 0.663 | 0.625 | 0.549 | 0.501 | 0.472 | 0.443 | 0.44 | 0.441
0.1 µM, coculture fibroblast: H6013 | 0.8447 | 0.8032 | 0.757 | 0.728 | 0.69 | 0.676 | 0.661 | 0.664 | 0.642
0.1 µM, coculture fibroblast: H6019 | 0.743 | 0.653 | 0.606 | 0.524 | 0.491 | 0.469 | 0.452 | 0.445 | 0.429
0.1 µM, coculture fibroblast: H6076 | 0.898 | 0.823 | 0.785 | 0.781 | 0.733 | 0.732 | 0.719 | 0.72 | 0.728
0.1 µM, coculture fibroblast: H6231 | 0.8909 | 0.7781 | 0.742 | 0.711 | 0.645 | 0.631 | 0.598 | 0.588 | 0.582
0.1 µM, coculture fibroblast: HADF | 0.897 | 0.805 | 0.735 | 0.69 | 0.65 | 0.6333 | 0.61323 | 0.61 | 0.601
0.1 µM, coculture fibroblast: HCFa | 0.844 | 0.774 | 0.733 | 0.707 | 0.665 | 0.657 | 0.625 | 0.616 | 0.582
0.1 µM, coculture fibroblast: HCPF | 0.904 | 0.796 | 0.741 | 0.718 | 0.6531 | 0.6354 | 0.6153 | 0.5945 | 0.5849
0.1 µM, coculture fibroblast: HHSteC | 0.887 | 0.7951 | 0.7407 | 0.693 | 0.645 | 0.614 | 0.601 | 0.58 | 0.556
0.1 µM, coculture fibroblast: HMF | 0.8865 | 0.772 | 0.7239 | 0.714 | 0.661 | 0.638 | 0.606 | 0.592 | 0.584
0.1 µM, coculture fibroblast: HPFa | 0.914 | 0.8135 | 0.762 | 0.703 | 0.655 | 0.627 | 0.594 | 0.579 | 0.546
0.1 µM, coculture fibroblast: HUF | 0.879 | 0.741 | 0.714 | 0.621 | 0.568 | 0.536 | 0.501 | 0.498 | 0.488
0.1 µM, coculture fibroblast: Hs27A | 0.89033 | 0.811 | 0.744 | 0.69 | 0.627 | 0.619 | 0.593 | 0.585 | 0.548
0.1 µM, coculture fibroblast: Hs343T | 0.934 | 0.823 | 0.761 | 0.736 | 0.677 | 0.65 | 0.614 | 0.594 | 0.595
0.1 µM, coculture fibroblast: WS1 | 0.8194 | 0.722 | 0.672 | 0.583 | 0.524 | 0.511 | 0.479 | 0.481 | 0.484
1 µM, coculture fibroblast: C12385 | 0.826 | 0.784 | 0.75 | 0.685 | 0.631 | 0.613 | 0.593 | 0.592 | 0.594
1 µM, coculture fibroblast: H6013 | 0.9137 | 0.899 | 0.8664 | 0.8412 | 0.806 | 0.804 | 0.799 | 0.8 | 0.788
1 µM, coculture fibroblast: H6019 | 0.797 | 0.786 | 0.809 | 0.745 | 0.716 | 0.703 | 0.69 | 0.677 | 0.666
1 µM, coculture fibroblast: H6076 | 0.909 | 0.873 | 0.85 | 0.832 | 0.787 | 0.773 | 0.756 | 0.754 | 0.749
1 µM, coculture fibroblast: H6231 | 0.895 | 0.845 | 0.818 | 0.7773 | 0.72096 | 0.7015 | 0.66234 | 0.6521 | 0.6488
1 µM, coculture fibroblast: HADF | 0.9153 | 0.894 | 0.828 | 0.77 | 0.721 | 0.695 | 0.663 | 0.657 | 0.63
1 µM, coculture fibroblast: HCFa | 0.8677 | 0.838 | 0.772 | 0.726 | 0.663 | 0.642 | 0.612 | 0.598 | 0.565
1 µM, coculture fibroblast: HCPF | 0.921 | 0.872 | 0.8652 | 0.8371 | 0.791 | 0.7801 | 0.77 | 0.7428 | 0.736
1 µM, coculture fibroblast: HHSteC | 0.889 | 0.85 | 0.797 | 0.757 | 0.705 | 0.671 | 0.6444 | 0.6256 | 0.596
1 µM, coculture fibroblast: HMF | 0.907 | 0.863 | 0.805 | 0.773 | 0.712 | 0.683 | 0.642 | 0.622 | 0.607
1 µM, coculture fibroblast: HPFa | 0.901 | 0.865 | 0.823 | 0.779 | 0.75 | 0.732 | 0.703 | 0.688 | 0.661
1 µM, coculture fibroblast: HUF | 0.86 | 0.791 | 0.765 | 0.677 | 0.613 | 0.581 | 0.545 | 0.534 | 0.528
1 µM, coculture fibroblast: Hs27A | 0.894 | 0.868 | 0.835 | 0.8056 | 0.7536 | 0.741 | 0.713 | 0.705 | 0.665
1 µM, coculture fibroblast: Hs343T | 0.951 | 0.886 | 0.83 | 0.802 | 0.736 | 0.71 | 0.668 | 0.645 | 0.643
1 µM, coculture fibroblast: WS1 | 0.792 | 0.738 | 0.686 | 0.621 | 0.573 | 0.569 | 0.553 | 0.558 | 0.562
